Data source: PubChem BioAssay AID1224830 (NIAID, 2016)

- Test: 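Regulators of TLR4 signalling towards TNF-alpha in macrophage-like cells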 (primary screen)
- Cell system: human THP-1 monocytic leukaemia cells, TNF dual-luciferase reporter clone, PMA-differentiated to macrophage-like cells
- Reagent: siRNA pool against human genes, 50 nM
- Timing: LPS for 4 h, given about 3 days after siRNA transfection
- Challenge: bacterial LPS (TLR4 ligand), 10 ng/ml
- Read-out: 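TNF firefly reporter luminescence divided by renilla, normalised to the plate median, then turned into a robust z-score for each replicate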
- Scale: TNF reporter robust z-score: higher = stronger TNF reporter response to LPS
- Rule for the call: 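a well is active when its z-score exceeds 2.8 or falls below -1.5; control wells carry no call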
Here is one part, drawn at random, of about 18,000 reagents. About 2,900 of all reagents (16%) count as active. 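Calls are made per well; low scores hint the gene aids the LPS response, high scores that it dampens it.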 Repeated entries: four replicate wells of each siRNA pool. Reagent sequences are not shown.

no.	target gene	TNF reporter robust z-score	outcome
1	FTO	-1.08	inactive
2	FTO	-0.25	inactive
3	FTO	-0.79	inactive
4	FTO	-0.24	inactive
5	NTN1	-0.15	inactive
6	NTN1	1.44	inactive
7	NTN1	0.79	inactive
8	NTN1	0.73	inactive
9	POP4	1.74	inactive
10	POP4	2.59	inactive
11	POP4	3.4	active
12	POP4	4.9	active
13	G6PD	-1.28	inactive
14	G6PD	1.38	inactive
15	G6PD	-0.04	inactive
16	G6PD	1.36	inactive
17	TMEM45B	-0.59	inactive
18	TMEM45B	-0.26	inactive
19	TMEM45B	-0.37	inactive
20	TMEM45B	-0.89	inactive
21	HEXA	2.08	inactive
22	HEXA	4.06	active
23	HEXA	2.09	inactive
24	HEXA	4.98	active
25	APOL5	0	inactive
26	APOL5	-0.23	inactive
27	APOL5	-0.33	inactive
28	APOL5	0.09	inactive
29	MARCHF1	0.62	inactive
30	MARCHF1	-0.51	inactive
31	MARCHF1	1.47	inactive
32	MARCHF1	2.21	inactive
33	PEX5	-0.53	inactive
34	PEX5	-0.08	inactive
35	PEX5	-1.38	inactive
36	PEX5	-0.89	inactive
37	PCDHA12	0.92	inactive
38	PCDHA12	0.24	inactive
39	PCDHA12	-0.08	inactive
40	PCDHA12	0.25	inactive
41	RASSF6	-0.41	inactive
42	RASSF6	-0.02	inactive
43	RASSF6	0.13	inactive
44	RASSF6	0.24	inactive
45	UBE2Z	-0.19	inactive
46	UBE2Z	-0.57	inactive
47	UBE2Z	-0.35	inactive
48	UBE2Z	-1.19	inactive
49	PPARGC1B	1.52	inactive
50	PPARGC1B	-0.71	inactive
51	PPARGC1B	0.35	inactive
52	PPARGC1B	-0.02	inactive

7 entries from above in another layout.
| target gene | TNF reporter robust z-score | outcome |
| --- | --- | --- |
| FTO | -0.24 | inactive |
| NTN1 | -0.15 | inactive |
| NTN1 | 1.44 | inactive |
| NTN1 | 0.79 | inactive |
| NTN1 | 0.73 | inactive |
| POP4 | 1.74 | inactive |
| POP4 | 2.59 | inactive |

Next records follow.
no.	target gene	TNF reporter robust z-score	outcome
53	OTUD3	1.41	inactive
54	OTUD3	1.82	inactive
55	OTUD3	0.96	inactive
56	OTUD3	2.5	inactive
57	GCNA	-0.26	inactive
58	GCNA	-0.95	inactive
59	GCNA	-0.93	inactive
60	GCNA	0.58	inactive
61	STH	0.24	inactive
62	STH	0.84	inactive
63	STH	0.46	inactive
64	STH	-0.93	inactive
65	CENPE	1.35	inactive
66	CENPE	1.58	inactive
67	CENPE	0.62	inactive
68	CENPE	0.73	inactive
69	HSPA4	-0.35	inactive
70	HSPA4	0.93	inactive
71	HSPA4	0.64	inactive
72	HSPA4	2.21	inactive
73	RGS6	-0.43	inactive
74	RGS6	-0.06	inactive
75	RGS6	-0.1	inactive
76	RGS6	0.69	inactive
77	PDLIM4	-0.05	inactive
78	PDLIM4	1.63	inactive
79	PDLIM4	-0.19	inactive
80	PDLIM4	-0.76	inactive
81	ZNF833P	-0.77	inactive
82	ZNF833P	0.19	inactive
83	ZNF833P	-0.82	inactive
84	ZNF833P	0.88	inactive
85	NEDD8	0.51	inactive
86	NEDD8	0.35	inactive
87	NEDD8	-1.18	inactive
88	NEDD8	-0.46	inactive
89	ICE2	-0.94	inactive
90	ICE2	0.04	inactive
91	ICE2	-0.35	inactive
92	ICE2	0.81	inactive
93	OR51I2	0.14	inactive
94	OR51I2	-0.2	inactive
95	OR51I2	-0.22	inactive
96	OR51I2	0.32	inactive
97	TTC21A	3.91	active
98	TTC21A	-0.43	inactive
99	TTC21A	-0.83	inactive
100	TTC21A	-0.32	inactive
101	IFT88	4.49	active
102	IFT88	1.27	inactive
103	IFT88	1.97	inactive
104	IFT88	3.24	active
105	PIGF	2.25	inactive
106	PIGF	1.88	inactive
107	PIGF	1.83	inactive
108	DND1	4.91	active
109	DND1	3.23	active
110	DND1	2.91	active
111	DND1	5.22	active
